Laboratory results from PMC5738357.
These are yes or no findings as the source states them, for the method shown. Binding seen in cells or lysates may run through a third protein. These calls come from enrichment with a bait or labelling near it, and not all partners need be listed.

Biological target: T1, scDhr1-FTpA (S. cerevisiae) (UniProt Q04217)
T1 sequence: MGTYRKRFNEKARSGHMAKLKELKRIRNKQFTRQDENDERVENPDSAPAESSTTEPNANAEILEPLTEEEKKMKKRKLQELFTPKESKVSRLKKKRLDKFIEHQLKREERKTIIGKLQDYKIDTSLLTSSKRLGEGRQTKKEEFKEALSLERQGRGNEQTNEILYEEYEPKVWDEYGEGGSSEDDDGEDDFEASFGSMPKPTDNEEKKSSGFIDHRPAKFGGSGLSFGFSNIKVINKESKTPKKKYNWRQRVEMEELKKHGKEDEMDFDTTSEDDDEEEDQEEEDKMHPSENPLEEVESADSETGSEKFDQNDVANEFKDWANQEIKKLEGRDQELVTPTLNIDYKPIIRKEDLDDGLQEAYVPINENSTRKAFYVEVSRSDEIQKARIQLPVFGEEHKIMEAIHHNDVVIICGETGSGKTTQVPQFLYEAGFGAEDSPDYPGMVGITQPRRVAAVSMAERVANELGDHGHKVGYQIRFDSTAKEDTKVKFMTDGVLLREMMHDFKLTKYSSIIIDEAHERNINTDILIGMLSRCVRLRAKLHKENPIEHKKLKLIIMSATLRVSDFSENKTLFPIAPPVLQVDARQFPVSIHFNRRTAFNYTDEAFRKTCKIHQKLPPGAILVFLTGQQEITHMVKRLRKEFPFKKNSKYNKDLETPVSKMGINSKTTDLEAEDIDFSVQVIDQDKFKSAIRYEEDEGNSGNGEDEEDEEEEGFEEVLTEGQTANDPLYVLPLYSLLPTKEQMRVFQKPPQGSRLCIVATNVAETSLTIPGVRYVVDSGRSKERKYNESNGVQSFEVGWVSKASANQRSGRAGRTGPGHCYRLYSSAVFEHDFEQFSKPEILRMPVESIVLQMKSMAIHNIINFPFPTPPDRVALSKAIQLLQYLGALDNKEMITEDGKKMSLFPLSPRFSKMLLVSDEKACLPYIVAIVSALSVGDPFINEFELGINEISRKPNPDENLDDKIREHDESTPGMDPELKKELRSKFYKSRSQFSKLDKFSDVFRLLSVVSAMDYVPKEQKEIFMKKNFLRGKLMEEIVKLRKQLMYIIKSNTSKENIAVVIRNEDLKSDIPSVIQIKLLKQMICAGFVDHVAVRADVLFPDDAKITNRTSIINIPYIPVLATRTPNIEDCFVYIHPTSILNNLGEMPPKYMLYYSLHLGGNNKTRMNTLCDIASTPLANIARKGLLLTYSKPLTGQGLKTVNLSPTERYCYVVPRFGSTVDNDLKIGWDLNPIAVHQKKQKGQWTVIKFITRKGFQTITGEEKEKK
Assay: affinity purification with mass spectrometry; tandem affinity-purification of FTpA-tagged yeast baits (IgG Sepharose, TEV, Flag agarose); SDS-PAGE, Coomassie, bands identified by mass spectrometry; cells expressing or depleted of Dim2 (GAL::scDIM2, glucose 8 h) or with or without Krr1 degradation (auxin 90 min)

B1: Dis3 (protein, UniProt Q08162 1-1001)
chain: MSVPAIAPRRKRLADGLSVTQKVFVRSRNGGATKIVREHYLRSDIPCLSRSCTKCPQIVVPDAQNELPKFILSDSPLELSAPIGKHYVVLDTNVVLQAIDLLENPNCFFDVIVPQIVLDEVRNKSYPVYTRLRTLCRDSDDHKRFIVFHNEFSEHTFVERLPNETINDRNDRAIRKTCQWYSEHLKPYDINVVLVTNDRLNREAATKEVESNIITKSLVQYIELLPNADDIRDSIPQMDSFDKDLERDTFSDFTFPEYYSTARVMGGLKNGVLYQGNIQISEYNFLEGSVSLPRFSKPVLIVGQKNLNRAFNGDQVIVELLPQSEWKAPSSIVLDSEHFDVNDNPDIEAGDDDDNNESSSNTTVISDKQRRLLAKDAMIAQRSKKIQPTAKVVYIQRRSWRQYVGQLAPSSVDPQSSSTQNVFVILMDKCLPKVRIRTRRAAELLDKRIVISIDSWPTTHKYPLGHFVRDLGTIESAQAETEALLLEHDVEYRPFSKKVLECLPAEGHDWKAPTKLDDPEAVSKDPLLTKRKDLRDKLICSIDPPGCVDIDDALHAKKLPNGNWEVGVHIADVTHFVKPGTALDAEGAARGTSVYLVDKRIDMLPMLLGTDLCSLKPYVDRFAFSVIWELDDSANIVNVNFMKSVIRSREAFSYEQAQLRIDDKTQNDELTMGMRALLKLSVKLKQKRLEAGALNLASPEVKVHMDSETSDPNEVEIKKLLATNSLVEEFMLLANISVARKIYDAFPQTAMLRRHAAPPSTNFEILNEMLNTRKNMSISLESSKALADSLDRCVDPEDPYFNTLVRIMSTRCMMAAQYFYSGAYSYPDFRHYGLAVDIYTHFTSPIRRYCDVVAHRQLAGAIGYEPLSLTHRDKNKMDMICRNINRKHRNAQFAGRASIEYYVGQVMRNNESTETGYVIKVFNNGIVVLVPKFGVEGLIRLDNLTEDPNSAAFDEVEYKLTFVPTNSDKPRDVYVFDKVEVQVRSVMDPITSKRKAELLLK
- binding: binds
